Data on one molecule can be found in patent US20240150457A1.

Results are given in words; binding and its absence hold for the method and conditions named. Binding calls can cover weak binding; strength is not graded here.

The target in this assay is Recombinant cynomolgus monkey PAR-2 (cynomolgus monkey). The experiment in a line: SPR. On the technique in general: SPR reads the build-up and loss of mass on a sensor chip optically.

B1: P24E1102 (antibody, human IgG4 S228P, kappa, V domains shown)
VH: QVQLVQSGAEVKKPGSSVKVSCKASGFSLSSYAISWVRQAPGQGLEWMGVIWGNQNVYYAQKFQGRVTITADESTSTAYMELSSLRSEDTAVYYCARWKGYKDYPFDYWGQGTLVTVSS
VL: EIVLTQSPATLSLSPGERATLSCRASQNVYKWLDWYQQKPGQAPRLLIYNANTRATGIPARFSGSGSGRDFTLTISSLEPEDFAVYYCQQHHSGWTFGGGTKVEIKR
For B1, the binding entry is “binds”.
